Data as given in PubChem BioAssay AID1159584 (Peter MacCallum Cancer Centre, 2016).
In all, the deposit lists about 18,000 reagents; this is an unselected part. Not all columns of the deposit are shown. Not given: the amount of reagent, the time to read-out.

- Screen: 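Genes that CDH1-null MCF10A cells selectively depend on to survive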 (primary screen)
- System: human MCF10A breast epithelial cells, parental and CDH1-null
- Reagent: siRNA against human genes
- Detection: 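Cell viability by CellTiter-Glo ATP luminescence, each line scaled to the mean of mock wells across plates, then CDH1-null over parental ratio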
- Direction: CDH1-null / parental viability ratio: higher = CDH1-null cells survive relatively better than parental; CDH1-null viability vs mock: higher = more viable CDH1-null cells
- Units: CDH1-null viability vs mock in fraction of mock

With knock-down of DCP1A (decapping mRNA 1A) the results were CDH1-null / parental viability ratio 0.99; CDH1-null viability vs mock 0.95. After knock-down of TREML4 (triggering receptor expressed on myeloid cells like 4), the record shows CDH1-null / parental viability ratio 1.1; CDH1-null viability vs mock 0.68. For LIG4 (DNA ligase 4), the values are CDH1-null / parental viability ratio 0.9; CDH1-null viability vs mock 0.88. CMAS (cytidine monophosphate N-acetylneuraminic acid synthetase) gave CDH1-null / parental viability ratio 0.89; CDH1-null viability vs mock 0.57. Depletion of RCN1 (reticulocalbin 1) came out at: CDH1-null / parental viability ratio 1.12; CDH1-null viability vs mock 0.9. After knock-down of PMM2 (phosphomannomutase 2), the record shows CDH1-null / parental viability ratio 0.87; CDH1-null viability vs mock 0.73.

SHCBP1L (SHC binding and spindle associated 1 like) gave CDH1-null / parental viability ratio 0.98; CDH1-null viability vs mock 0.78. For OR7E85BP, the values are CDH1-null / parental viability ratio 0.87; CDH1-null viability vs mock 0.2. HNRNPUL2 (heterogeneous nuclear ribonucleoprotein U like 2) gave CDH1-null / parental viability ratio 1.1; CDH1-null viability vs mock 0.55. After knock-down of PEX1 (peroxisomal biogenesis factor 1), the record shows CDH1-null / parental viability ratio 1.07; CDH1-null viability vs mock 0.77. With knock-down of HS3ST2 (heparan sulfate-glucosamine 3-sulfotransferase 2) the results were CDH1-null / parental viability ratio 1.05; CDH1-null viability vs mock 1.01. Silencing of DNAJB1 (DnaJ heat shock protein family (Hsp40) member B1) resulted in: CDH1-null / parental viability ratio 1.29; CDH1-null viability vs mock 0.62.

Against FBXO17 (F-box protein 17) the deposit lists CDH1-null / parental viability ratio 0.85; CDH1-null viability vs mock 0.7. WASHC5 (WASH complex subunit 5) showed CDH1-null / parental viability ratio 1.1; CDH1-null viability vs mock 0.9. TMEM106C (transmembrane protein 106C) scored CDH1-null / parental viability ratio 1.15; CDH1-null viability vs mock 1.01. Knock-down of GRM5 (glutamate metabotropic receptor 5) gave: CDH1-null / parental viability ratio 0.95; CDH1-null viability vs mock 0.78. After knock-down of WARS1 (tryptophanyl-tRNA synthetase 1) the results were CDH1-null / parental viability ratio 0.95; CDH1-null viability vs mock 0.92. For ZNF271P (zinc finger protein 271, pseudogene), the values are CDH1-null / parental viability ratio 1; CDH1-null viability vs mock 0.6.

OR5K4 (olfactory receptor family 5 subfamily K member 4) showed CDH1-null / parental viability ratio 0.75; CDH1-null viability vs mock 0.58. After knock-down of TRIM45 (tripartite motif containing 45), the record shows CDH1-null / parental viability ratio 0.89; CDH1-null viability vs mock 0.87. After knock-down of EHD2 (EH domain containing 2), the record shows CDH1-null / parental viability ratio 1.3; CDH1-null viability vs mock 1.04. SLC4A10 gave CDH1-null / parental viability ratio 1.05; CDH1-null viability vs mock 1. DENND3 (DENN domain containing 3) scored CDH1-null / parental viability ratio 1.03; CDH1-null viability vs mock 0.7. Knock-down of AKAP7 (A-kinase anchoring protein 7) gave: CDH1-null / parental viability ratio 0.57; CDH1-null viability vs mock 0.34.

With knock-down of OR2AG2 (olfactory receptor family 2 subfamily AG member 2) the results were CDH1-null / parental viability ratio 1.15; CDH1-null viability vs mock 0.68. Against GKN1 (gastrokine 1), the values are CDH1-null / parental viability ratio 0.97; CDH1-null viability vs mock 0.68. Against PRMT9 (protein arginine methyltransferase 9), the entry reads CDH1-null / parental viability ratio 1.29; CDH1-null viability vs mock 0.75. Silencing of TTC17 (tetratricopeptide repeat domain 17) came out at: CDH1-null / parental viability ratio 0.93; CDH1-null viability vs mock 0.96. After knock-down of GTPBP10 (GTP binding protein 10), the screen gave CDH1-null / parental viability ratio 0.91; CDH1-null viability vs mock 0.73. OR5AN1 (olfactory receptor family 5 subfamily AN member 1) gave CDH1-null / parental viability ratio 0.91; CDH1-null viability vs mock 0.51.

Knock-down of IFNA2 (interferon alpha 2) resulted in: CDH1-null / parental viability ratio 0.85; CDH1-null viability vs mock 0.76. Against SLC13A5 the deposit lists CDH1-null / parental viability ratio 1.09; CDH1-null viability vs mock 0.94. Against LYAR (Ly1 antibody reactive) the deposit lists CDH1-null / parental viability ratio 1.8; CDH1-null viability vs mock 0.99. Depletion of GNL3 (G protein nucleolar 3) resulted in: CDH1-null / parental viability ratio 1.13; CDH1-null viability vs mock 0.62. BLMH (bleomycin hydrolase) scored CDH1-null / parental viability ratio 1.39; CDH1-null viability vs mock 0.92.

Laid out differently: 6 of the entries above
gene symbol	CDH1-null / parental viability ratio	CDH1-null viability vs mock
GTPBP10 (GTP binding protein 10)	0.91	0.73
OR5AN1 (olfactory receptor family 5 subfamily AN member 1)	0.91	0.51
IFNA2 (interferon alpha 2)	0.85	0.76
SLC13A5	1.09	0.94
LYAR (Ly1 antibody reactive)	1.8	0.99
GNL3 (G protein nucleolar 3)	1.13	0.62
